# Laboratory results published in PMC4344513.
# B1: wild type Polη stably expressed in XP30RO (XPV) cells [human] / POLD2 endogenous in XPV cells [human (endogenous in XP30RO)] (parent)
# chain 1: MATGQDRVVALVDMDCFFVQVEQRQNPHLRNKPCAVVQYKSWKGGGIIAVSYEARAFGVTRSMWADDAKKLCPDLLLAQVRESRGKANLTKYREASVEVMEIMSRFAVIERASIDEAYVDLTSAVQERLQKLQGQPISADLLPSTYIEGLPQGPTTAEETVQKEGMRKQGLFQWLDSLQIDNLTSPDLQLTVGAVIVEEMRAAIERETGFQCSAGISHNKVLAKLACGLNKPNRQTLVSHGSVPQLFSQMPIRKIRSLGGKLGASVIEILGIEYMGELTQFTESQLQSHFGEKNGSWLYAMCRGIEHDPVKPRQLPKTIGCSKNFPGKTALATREQVQWWLLQLAQELEERLTKDRNDNDRVATQLVVSIRVQGDKRLSSLRRCCALTRYDAHKMSHDAFTVIKNCNTSGIQTEWSPPLTMLFLCATKFSASAPSSSTDITSFLSSDPSSLPKVPVTSSEAKTQGSGPAVTATKKATTSLESFFQKAAERQKVKEASLSSLTAPTQAPMSNSPSKPSLPFQTSQSTGTEPFFKQKSLLLKQKQLNNSSVSSPQQNPWSNCKALPNSLPTEYPGCVPVCEGVSKLEESSKATPAEMDLAHNSQSMHASSASKSVLEVTQKATPNPSLLAAEDQVPCEKCGSLVPVWDMPEHMDYHFALELQKSFLQPHSSNPQVVSAVSHQGKRNPKSPLACTNKRPRPEGMQTLESFFKPLTH
# chain 2: MFSEQAAQRAHTLLSPPSANNATFARVPVATYTNSSQPFRLGERSFSRQYAHIYATRLIQMRPFLENRAQQHWGSGVGVKKLCELQPEEKCCVVGTLFKAMPLQPSILREVSEEHNLLPQPPRSKYIHPDDELVLEDELQRIKLKGTIDVSKLVTGTVLAVFGSVRDDGKFLVEDYCFADLAPQKPAPPLDTDRFVLLVSGLGLGGGGGESLLGTQLLVDVVTGQLGDEGEQCSAAHVSRVILAGNLLSHSTQSRDSINKAKYLTKKTQAASVEAVKMLDEILLQLSASVPVDVMPGEFDPTNYTLPQQPLHPCMFPLATAYSTLQLVTNPYQATIDGVRFLGTSGQNVSDIFRYSSMEDHLEILEWTLRVRHISPTAPDTLGCYPFYKTDPFIFPECPHVYFCGNTPSFGSKIIRGPEDQTVLLVTVPDFSATQTACLVNLRSLACQPISFSGFGAEDDDLGGLGLGP
# Variants of: B1
# Experiment: proximity ligation assay (PLA) in XPV cells
# Settings: with POLD2 endogenous in XPV cells [human (endogenous in XP30RO)]; UV-irradiated (20 J/m2), processed after 6 h; CSK-extracted nuclei; positive cell = at least four fluorescent spots; parent: 28.3
row,screen value [%],Variant
1,5.7,chain 1 F483A F484A

# Same assay, conditions: with POLD2 endogenous in XPV cells [human (endogenous in XP30RO)]; non-treated (-UV); CSK-extracted nuclei; positive cell = at least four fluorescent spots; parent: 4.6
row,screen value [%],Variant
1,4.1,chain 1 F483A F484A
